# Among all 320,000 compounds or so, about 22,000 (6.9%) were called active. The inconclusive results got no clear call from the source; some entries with a clear call stand among them for comparison. The call rests on the fitted dose curve; in most records, active means well fitted inhibition curve with a large enough effect; inconclusive means small, poorly fitted or top-dose-only effect, or another doubt; inactive means no such curve, though single readings can be large or run the other way. Where the call is inconclusive, the potency comes from a doubtful curve fit.
# Test: Primary qHTS for delayed death inhibitors of the malarial parasite plastid, 96 hour incubation
# Conditions: P. falciparum luciferase reporter growth; series mostly up to 28.7 µM
# How it was run: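 Compounds incubated with erythrocytes infected by luciferase-expressing P. falciparum (2% hematocrit, 0.05% parasitemia final) for 96 hours, 37 C in 5% CO2. Growth inhibition scored as decreased luciferase luminescence.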
# Potency means the concentration at half of the fitted maximal effect.
row,Structure (SMILES),Potency
1,O=C(Nc1nnc(-c2ccncc2)o1)c1cccc(N2C(=O)CCC2=O)c1,inactive
2,COc1ccccc1CNC(=O)CCCOc1cc(=O)n(C)c2ccccc12,"inconclusive: 13.1 µM [inhibitor, single point]"
3,O=C(Nc1ccccc1Cl)c1ccc2ccccc2c1,"inconclusive: 4.65 µM [inhibitor, full curve, poor fit]"
4,O=C(Nc1cccc(S(=O)(=O)N2CCOCC2)c1)C1COc2ccccc2O1 (stereo not given),inactive
5,Cc1cc(=O)oc2cc(OCc3ccc(C(=O)OCC(=O)Nc4ccccc4OC(F)F)cc3)ccc12,inactive
6,CN(C(=O)c1ccc(NC(=O)Cc2ccc(NC(=O)C3CCN(C(=O)CCc4ccccc4)CC3)cc2)cc1)C1CC1,"inconclusive: 0.928 µM [inhibitor, full curve]"
7,Cc1ccc(OCCCC(=O)Nc2cc(S(=O)(=O)N3CCOCC3)ccc2N2CCOCC2)cc1,inactive
8,C=CCn1c(C)cc(C(=O)CSc2nnc(C3CC3)n2C2CC2)c1C,inactive
9,C=CCSc1nc2sc3c(c2c(=O)n1-c1ccc(C)cc1)CCN(C)C3,active: 1.47 µM
10,CC(C)Oc1cccc(C(=O)Nc2ccc(N3CCN(C)CC3)cc2)c1,"inconclusive: 13.1 µM [inhibitor, single point]"
11,CCc1nccn1CCC(=O)NC1CC(C)(C)Cc2c1cnn2-c1ccc(C)cc1 (stereo not given),"inconclusive: 20.8 µM [inhibitor, partial curve, poor fit]"
12,COc1ccccc1NC(=S)NCCc1ccc(Cl)cc1,"inconclusive: 4.15 µM [inhibitor, partial curve, poor fit]"
13,Cc1ccc(-c2nc(-c3ccc(Cl)cc3)sc2CC(=O)O)c(C)c1,"inconclusive: 7.38 µM [inhibitor, partial curve, poor fit]"
14,COc1cccc(C(=O)NC2CC3CCCC(C2)N3CC(=O)Nc2ccccc2)c1 (stereo not given),"inconclusive: 9.28 µM [inhibitor, partial curve]"
15,Cc1ccccc1CCNC(=O)Cn1ccc2cc(S(=O)(=O)N3CCCC3)ccc21,"inconclusive: 18.5 µM [inhibitor, single point]"
16,COc1ccc(NC2CCCN(C(=O)CCCN3CCCCC3=O)C2)cc1 (stereo not given),"inconclusive: 0.165 µM [inhibitor, full curve, poor fit]"
17,CCOc1ccccc1OCC(=O)Nc1cc(S(=O)(=O)N2CCCCC2)ccc1N1CCN(CC)CC1,active: 3.29 µM
18,Fc1ccc(C2CC(c3cccs3)=NN2c2ccccc2)cc1 (stereo not given),inactive
19,NC(=O)CC(NC(=O)Cc1ccc(Br)cc1)c1ccc(NC2CCN(Cc3ccccc3)CC2)c([N+](=O)[O-])c1 (stereo not given),"inconclusive: 5.22 µM [inhibitor, partial curve]"
20,O=C(Nc1cc(S(=O)(=O)N2CCOCC2)ccc1N1CCCCC1)c1ccccc1,active: 4.65 µM
21,CCOc1ccc(NC(=O)N2CCC(NC(=O)C(Cc3cccc(F)c3)NC(C)=O)CC2)cc1 (stereo not given),"inconclusive: 14.7 µM [inhibitor, single point]"
22,CCCN(S(=O)(=O)c1ccccc1F)S(=O)(=O)c1ccccc1Br,inactive
23,COc1ccc(NC(=O)c2ccc3ccccc3c2)cc1NS(=O)(=O)c1ccc(F)cc1,"inconclusive: 14.7 µM [inhibitor, single point]"

row,Structure (SMILES),Potency
1,O=C1C2C3C=CC(C4CC34)C2C(=O)N1/N=C/c1ccc([N+](=O)[O-])o1 (stereo not given),inactive
2,COC(=O)C(Cc1ccccc1)NC(=O)c1ccc(NS(=O)(=O)c2ccc3[nH]c(=O)[nH]c3c2)cc1 (stereo not given),"inconclusive: 9.28 µM [inhibitor, single point]"
3,CCOc1ccc(N(CC(=O)NCc2ccc(OC)cc2)S(=O)(=O)c2c(C)noc2C)cc1,active: 9.28 µM
4,Cc1ccsc1/C=N/NC(=O)c1nnn(-c2nonc2N)c1C,"inconclusive: 2.08 µM [inhibitor, partial curve]"
5,Cc1cc(SCC(=O)NN)c2cc(Br)ccc2n1,"inconclusive: 13.1 µM [inhibitor, single point]"
6,C#CCOc1ccc(Br)cc1/C=N/O,inactive
7,Fc1ccccc1/C=N/n1c(C2CCCCC2)n[nH]c1=S,inactive
8,Cc1ccc(NC(=O)C(c2ccc(Cl)cc2)N2CCCCC2)cc1 (stereo not given),"inconclusive: 0.0738 µM [inhibitor, full curve, poor fit]"
9,COCCNC(=O)CSc1cc(-c2ccccc2)c2ccc(OC)cc2n1,"inconclusive: 18.5 µM [inhibitor, single point]"
10,Cc1cccc(C(C)C)c1NC(=O)c1ccc(CN(c2ccccc2)S(=O)(=O)c2ccccc2)cc1,inactive
11,Cc1nc2ccc(C(=O)N/N=C/c3ccc(O)cc3)cc2[nH]1,"inconclusive: 1.17 µM [inhibitor, full curve, poor fit]"
12,Cc1csc(NC(=O)CSC2=NS(=O)(=O)c3ccccc3N2)n1,inactive
13,C=C(C)CSc1cc(C)c(C#N)c2nc3ccccc3n12,"inconclusive: 16.5 µM [inhibitor, single point]"
14,COc1ccc(C(=O)NN=C2CCCC2)cc1OC,"inconclusive: 2.62 µM [inhibitor, full curve, poor fit]"
15,Cn1c(=O)c(C(=O)NNC(=O)c2ccc(Br)cc2)c(O)c2ccccc21,inactive
16,CCOc1ccc(C(=O)N[C@H](C(=O)Nc2cccc(S(=O)(=O)N3CCCCC3)c2)C(C)C)cc1,active: 10.4 µM
17,COc1ccc(S(=O)(=O)Nc2ccc(S(=O)(=O)N3CCOCC3)cc2)cc1,"inconclusive: 11.7 µM [inhibitor, partial curve, poor fit]"
18,COc1ccc(CN2CCN(C(=O)c3cccc4ccccc34)CC2)c(OC)c1OC,"inconclusive: 18.5 µM [inhibitor, single point]"
19,CN1C(=O)C(=Cc2cn(CC(=O)N3CCCC3)c3ccccc23)C(=O)N(C)C1=O,inactive
20,COc1ccc(NS(=O)(=O)c2ccc(-n3nnc4ccccc43)c([N+](=O)[O-])c2)cc1,inactive
21,Cc1ccc(C(CNC(=O)C(=O)Nc2ccc3c(c2)OCCO3)N2CCN(C)CC2)cc1 (stereo not given),inactive
22,COCCNC(=O)C/C(C)=N/NC(=O)C(=O)NC1CCCCC1,inactive

# An excerpt from above in order of length of the SMILES, rising:
row,Structure (SMILES),Potency
3,O=C(Nc1ccccc1Cl)c1ccc2ccccc2c1,"inconclusive: 4.65 µM [inhibitor, full curve, poor fit]"
7,Fc1ccccc1/C=N/n1c(C2CCCCC2)n[nH]c1=S,inactive
10,CC(C)Oc1cccc(C(=O)Nc2ccc(N3CCN(C)CC3)cc2)c1,"inconclusive: 13.1 µM [inhibitor, single point]"
23,COc1ccc(NC(=O)c2ccc3ccccc3c2)cc1NS(=O)(=O)c1ccc(F)cc1,"inconclusive: 14.7 µM [inhibitor, single point]"
